Reference: PMC6234029
Results are given in words; binding and its absence hold for the method and conditions named. In cells and extracts the contact can be indirect. Some results given as binding are weak or reduced against the parent protein; the word gives no strength.

Sequences of proteins named here, by UniProt entry; tags and fusion partners are left off.
UniProt P41229: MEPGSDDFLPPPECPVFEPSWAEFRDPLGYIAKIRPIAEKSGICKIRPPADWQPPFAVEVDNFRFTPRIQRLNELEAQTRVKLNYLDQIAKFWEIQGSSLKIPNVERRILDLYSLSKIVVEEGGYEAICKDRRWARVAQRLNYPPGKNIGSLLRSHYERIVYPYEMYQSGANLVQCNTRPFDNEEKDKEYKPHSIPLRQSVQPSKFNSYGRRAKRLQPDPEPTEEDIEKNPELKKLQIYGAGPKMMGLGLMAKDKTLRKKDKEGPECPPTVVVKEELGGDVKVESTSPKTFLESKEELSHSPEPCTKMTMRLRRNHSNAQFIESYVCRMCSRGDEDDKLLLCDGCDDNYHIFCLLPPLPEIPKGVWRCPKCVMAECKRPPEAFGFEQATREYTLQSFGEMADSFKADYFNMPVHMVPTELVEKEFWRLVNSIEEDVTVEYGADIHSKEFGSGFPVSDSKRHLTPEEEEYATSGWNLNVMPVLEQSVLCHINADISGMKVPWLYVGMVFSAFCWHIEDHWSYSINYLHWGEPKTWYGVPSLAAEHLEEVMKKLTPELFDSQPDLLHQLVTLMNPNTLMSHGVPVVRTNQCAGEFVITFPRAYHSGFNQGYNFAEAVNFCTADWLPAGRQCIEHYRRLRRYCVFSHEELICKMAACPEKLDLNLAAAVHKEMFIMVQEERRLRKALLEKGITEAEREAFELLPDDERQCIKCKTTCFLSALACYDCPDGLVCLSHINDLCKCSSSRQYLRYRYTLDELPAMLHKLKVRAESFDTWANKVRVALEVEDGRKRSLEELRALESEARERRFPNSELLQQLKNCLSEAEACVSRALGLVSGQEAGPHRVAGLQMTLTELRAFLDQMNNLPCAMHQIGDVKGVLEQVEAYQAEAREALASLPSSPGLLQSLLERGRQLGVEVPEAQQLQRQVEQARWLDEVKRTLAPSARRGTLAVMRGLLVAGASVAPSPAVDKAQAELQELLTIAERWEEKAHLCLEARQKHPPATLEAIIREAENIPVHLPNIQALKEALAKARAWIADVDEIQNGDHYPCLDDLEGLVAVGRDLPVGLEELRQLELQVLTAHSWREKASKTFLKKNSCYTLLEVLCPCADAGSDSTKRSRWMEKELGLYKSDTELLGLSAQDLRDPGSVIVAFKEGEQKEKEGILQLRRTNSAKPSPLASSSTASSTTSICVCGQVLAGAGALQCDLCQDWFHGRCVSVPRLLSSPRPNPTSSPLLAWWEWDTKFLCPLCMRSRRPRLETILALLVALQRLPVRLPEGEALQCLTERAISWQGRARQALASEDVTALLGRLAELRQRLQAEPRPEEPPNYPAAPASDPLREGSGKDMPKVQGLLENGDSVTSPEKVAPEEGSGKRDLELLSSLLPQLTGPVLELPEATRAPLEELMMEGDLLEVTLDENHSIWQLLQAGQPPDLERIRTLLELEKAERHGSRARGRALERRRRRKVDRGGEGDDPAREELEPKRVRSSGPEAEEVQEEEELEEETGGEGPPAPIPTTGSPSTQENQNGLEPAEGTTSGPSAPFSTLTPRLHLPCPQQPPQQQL
UniProt Q86U86: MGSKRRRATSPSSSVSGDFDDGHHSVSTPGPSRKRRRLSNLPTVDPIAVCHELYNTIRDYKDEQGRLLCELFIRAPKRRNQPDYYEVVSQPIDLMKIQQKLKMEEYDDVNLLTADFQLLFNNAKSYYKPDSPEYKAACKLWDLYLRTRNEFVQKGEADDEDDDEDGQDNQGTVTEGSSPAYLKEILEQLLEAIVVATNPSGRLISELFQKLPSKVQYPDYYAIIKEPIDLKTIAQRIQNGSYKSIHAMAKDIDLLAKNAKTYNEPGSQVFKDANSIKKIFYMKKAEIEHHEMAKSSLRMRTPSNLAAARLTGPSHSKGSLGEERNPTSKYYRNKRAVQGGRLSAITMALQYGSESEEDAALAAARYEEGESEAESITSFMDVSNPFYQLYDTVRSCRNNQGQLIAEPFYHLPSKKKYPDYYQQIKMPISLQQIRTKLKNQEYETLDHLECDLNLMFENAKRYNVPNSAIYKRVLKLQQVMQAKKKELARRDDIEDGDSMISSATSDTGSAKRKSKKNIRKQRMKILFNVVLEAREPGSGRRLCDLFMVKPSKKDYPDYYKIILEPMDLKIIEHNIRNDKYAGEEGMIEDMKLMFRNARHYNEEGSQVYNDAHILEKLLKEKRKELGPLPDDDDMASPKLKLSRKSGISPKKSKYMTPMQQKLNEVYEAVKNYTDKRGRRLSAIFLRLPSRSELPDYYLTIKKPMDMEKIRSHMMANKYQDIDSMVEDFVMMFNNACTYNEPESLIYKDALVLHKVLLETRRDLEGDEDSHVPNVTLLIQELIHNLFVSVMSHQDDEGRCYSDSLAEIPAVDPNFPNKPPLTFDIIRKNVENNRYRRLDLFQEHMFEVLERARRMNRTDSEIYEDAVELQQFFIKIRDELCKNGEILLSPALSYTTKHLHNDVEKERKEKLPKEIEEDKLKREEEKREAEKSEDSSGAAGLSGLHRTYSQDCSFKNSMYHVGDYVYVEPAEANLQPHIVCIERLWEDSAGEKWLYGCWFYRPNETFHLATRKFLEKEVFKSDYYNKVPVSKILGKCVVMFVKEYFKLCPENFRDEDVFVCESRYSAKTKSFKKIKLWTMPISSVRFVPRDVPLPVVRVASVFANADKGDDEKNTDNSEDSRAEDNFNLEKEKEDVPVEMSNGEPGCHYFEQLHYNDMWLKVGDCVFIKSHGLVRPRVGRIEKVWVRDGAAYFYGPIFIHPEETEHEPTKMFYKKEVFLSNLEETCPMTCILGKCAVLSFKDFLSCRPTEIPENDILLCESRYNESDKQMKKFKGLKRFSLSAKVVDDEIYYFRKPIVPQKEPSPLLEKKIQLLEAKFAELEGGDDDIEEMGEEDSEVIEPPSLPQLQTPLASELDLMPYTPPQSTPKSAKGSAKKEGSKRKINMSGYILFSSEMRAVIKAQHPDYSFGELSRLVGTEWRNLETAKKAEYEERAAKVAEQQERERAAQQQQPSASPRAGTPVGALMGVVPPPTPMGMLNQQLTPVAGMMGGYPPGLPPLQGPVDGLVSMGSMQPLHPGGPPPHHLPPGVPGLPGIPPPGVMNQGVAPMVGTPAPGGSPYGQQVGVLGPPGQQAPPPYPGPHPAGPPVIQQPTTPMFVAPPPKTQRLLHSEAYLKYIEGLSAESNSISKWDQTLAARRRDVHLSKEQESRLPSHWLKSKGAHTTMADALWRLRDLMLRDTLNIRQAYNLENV
UniProt P51532: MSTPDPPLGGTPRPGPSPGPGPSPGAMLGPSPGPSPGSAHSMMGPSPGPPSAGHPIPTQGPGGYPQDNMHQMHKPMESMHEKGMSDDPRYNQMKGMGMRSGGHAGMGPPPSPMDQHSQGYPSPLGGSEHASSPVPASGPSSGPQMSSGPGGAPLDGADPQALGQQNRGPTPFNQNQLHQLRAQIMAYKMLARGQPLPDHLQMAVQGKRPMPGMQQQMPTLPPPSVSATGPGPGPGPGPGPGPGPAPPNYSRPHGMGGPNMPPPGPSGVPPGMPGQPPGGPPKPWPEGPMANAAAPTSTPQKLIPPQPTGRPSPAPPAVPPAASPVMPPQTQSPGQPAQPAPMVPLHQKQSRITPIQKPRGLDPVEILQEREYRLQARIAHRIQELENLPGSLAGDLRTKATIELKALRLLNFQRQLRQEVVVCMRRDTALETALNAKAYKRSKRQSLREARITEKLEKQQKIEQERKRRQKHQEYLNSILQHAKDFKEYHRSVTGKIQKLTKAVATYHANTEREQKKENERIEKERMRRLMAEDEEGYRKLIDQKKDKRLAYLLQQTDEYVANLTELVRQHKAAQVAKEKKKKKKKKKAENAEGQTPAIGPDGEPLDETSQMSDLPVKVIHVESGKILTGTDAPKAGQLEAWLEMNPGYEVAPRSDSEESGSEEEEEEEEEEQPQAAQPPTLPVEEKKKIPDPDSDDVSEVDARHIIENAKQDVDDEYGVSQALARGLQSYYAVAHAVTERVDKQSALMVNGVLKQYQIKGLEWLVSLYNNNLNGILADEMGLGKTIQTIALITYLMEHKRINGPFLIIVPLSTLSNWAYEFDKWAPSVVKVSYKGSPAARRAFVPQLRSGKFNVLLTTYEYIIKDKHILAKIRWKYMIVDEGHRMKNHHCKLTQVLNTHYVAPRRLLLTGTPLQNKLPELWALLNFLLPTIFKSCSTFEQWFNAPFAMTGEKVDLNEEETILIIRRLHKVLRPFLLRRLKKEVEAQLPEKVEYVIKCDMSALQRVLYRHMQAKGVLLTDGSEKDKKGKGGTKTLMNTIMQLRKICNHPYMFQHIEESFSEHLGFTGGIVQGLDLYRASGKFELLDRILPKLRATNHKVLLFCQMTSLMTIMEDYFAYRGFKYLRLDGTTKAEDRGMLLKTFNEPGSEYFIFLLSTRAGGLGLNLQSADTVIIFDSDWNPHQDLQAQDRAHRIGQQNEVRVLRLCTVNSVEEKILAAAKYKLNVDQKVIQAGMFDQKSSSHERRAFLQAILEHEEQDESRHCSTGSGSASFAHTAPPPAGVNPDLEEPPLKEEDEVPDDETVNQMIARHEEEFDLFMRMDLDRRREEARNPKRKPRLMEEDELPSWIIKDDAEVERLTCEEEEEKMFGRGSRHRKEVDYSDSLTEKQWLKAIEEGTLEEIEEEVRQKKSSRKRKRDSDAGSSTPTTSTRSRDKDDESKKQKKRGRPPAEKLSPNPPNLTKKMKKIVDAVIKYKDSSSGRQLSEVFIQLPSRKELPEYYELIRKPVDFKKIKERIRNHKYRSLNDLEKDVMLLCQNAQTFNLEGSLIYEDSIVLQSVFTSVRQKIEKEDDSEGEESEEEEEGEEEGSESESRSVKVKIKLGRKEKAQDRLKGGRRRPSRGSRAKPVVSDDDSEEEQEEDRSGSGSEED
UniProt Q8TAQ2: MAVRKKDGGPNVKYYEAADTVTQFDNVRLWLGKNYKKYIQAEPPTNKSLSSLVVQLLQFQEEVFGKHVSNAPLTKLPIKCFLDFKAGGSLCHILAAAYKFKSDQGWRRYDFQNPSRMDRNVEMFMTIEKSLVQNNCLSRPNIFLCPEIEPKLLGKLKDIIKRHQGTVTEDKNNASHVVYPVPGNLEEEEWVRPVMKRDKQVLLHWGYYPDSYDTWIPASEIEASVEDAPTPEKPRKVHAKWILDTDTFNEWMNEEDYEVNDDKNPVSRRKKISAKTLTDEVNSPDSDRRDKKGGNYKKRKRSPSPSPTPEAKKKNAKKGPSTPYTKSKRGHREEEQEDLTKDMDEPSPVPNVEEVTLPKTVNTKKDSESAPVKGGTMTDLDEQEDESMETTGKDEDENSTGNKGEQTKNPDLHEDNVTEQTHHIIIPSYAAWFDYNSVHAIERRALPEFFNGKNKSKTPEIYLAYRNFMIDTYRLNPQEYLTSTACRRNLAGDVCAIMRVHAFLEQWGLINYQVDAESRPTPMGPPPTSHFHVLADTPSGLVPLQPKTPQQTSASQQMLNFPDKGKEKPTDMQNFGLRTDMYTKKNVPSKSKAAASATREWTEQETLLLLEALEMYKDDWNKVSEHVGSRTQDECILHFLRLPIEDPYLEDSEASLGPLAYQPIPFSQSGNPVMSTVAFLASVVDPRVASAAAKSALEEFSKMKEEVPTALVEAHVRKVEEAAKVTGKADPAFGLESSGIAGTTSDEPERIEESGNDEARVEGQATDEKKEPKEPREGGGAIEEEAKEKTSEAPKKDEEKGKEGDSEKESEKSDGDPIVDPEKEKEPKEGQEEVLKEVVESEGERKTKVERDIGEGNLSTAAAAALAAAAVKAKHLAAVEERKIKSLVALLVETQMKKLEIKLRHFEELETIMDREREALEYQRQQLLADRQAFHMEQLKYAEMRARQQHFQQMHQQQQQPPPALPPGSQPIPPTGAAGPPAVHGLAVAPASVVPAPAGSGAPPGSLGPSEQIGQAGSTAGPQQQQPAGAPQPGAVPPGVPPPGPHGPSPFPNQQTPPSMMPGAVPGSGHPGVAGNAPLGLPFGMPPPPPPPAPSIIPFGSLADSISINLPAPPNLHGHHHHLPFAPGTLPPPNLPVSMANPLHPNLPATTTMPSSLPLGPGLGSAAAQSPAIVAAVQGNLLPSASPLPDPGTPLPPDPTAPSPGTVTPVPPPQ
UniProt Q969G3: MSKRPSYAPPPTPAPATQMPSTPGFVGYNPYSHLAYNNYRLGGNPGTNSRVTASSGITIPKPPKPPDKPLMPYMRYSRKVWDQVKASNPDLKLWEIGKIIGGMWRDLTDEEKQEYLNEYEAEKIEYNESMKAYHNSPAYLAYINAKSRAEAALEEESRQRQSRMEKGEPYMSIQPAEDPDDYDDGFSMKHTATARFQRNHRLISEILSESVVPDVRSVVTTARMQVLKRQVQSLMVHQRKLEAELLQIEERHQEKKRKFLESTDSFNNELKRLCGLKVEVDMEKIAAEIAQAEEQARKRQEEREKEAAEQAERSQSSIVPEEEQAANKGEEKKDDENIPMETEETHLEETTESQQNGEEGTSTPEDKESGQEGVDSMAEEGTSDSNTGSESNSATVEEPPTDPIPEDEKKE

Columns and labels:
[1] = target: Flag-KDM5C (human) (human) (UniProt P41229); test: co-IP; Flag-PBRM1 or Flag-KDM5C transfected into HEK293T cells; EBC lysates; immunoprecipitation, immunoblot of endogenous partners
[2] = target: KDM5C expressed from a plasmid together with PBRM1 (Figure 4A) (human) (UniProt P41229); test: co-IP; PBRM1 and KDM5C both expressed from plasmids in HEK293T cells; EBC lysates (50 mM Tris pH 8.0, 120 mM NaCl, 0.5% NP-40); immunoprecipitation of either protein, immunoblot
[3] = target: Flag-PBRM1 (human), full-length PBRM1 in p3xFlag-CMV10 (human) (UniProt Q86U86); test: co-IP; Flag-PBRM1 or Flag-KDM5C transfected into HEK293T cells; EBC lysates; immunoprecipitation, immunoblot of endogenous partners

binding [1] | binding [2] | binding [3] | Substance
binds | – | – | endogenous PBRM1 (from UniProt Q86U86 1-1689)
– | binds | – | PBRM1 expressed from a plasmid together with KDM5C (Figure 4A) (from UniProt Q86U86 1-1689)
binds | – | – | BRG1 (from UniProt P51532 1-1647)
binds | – | – | BAF170 (from UniProt Q8TAQ2 1-1214)
no binding | – | binds | BAF57 (from UniProt Q969G3 1-411)
